Measurements from the supplement of paper PMC3334620.
Whole data set: some 33,000 sequences, median “E-score (-0.5 to 0.5)” near -0.0034, cut for the highest 2% near 0.25. This is one part of the list.

Each sequence was assayed against T1, Yap3 (UniProt P38749) (assay: PBM E-score (8-mer binding enrichment) (E-score (-0.5 to 0.5)); higher = stronger / more preferred TF binding). Conditions: protein concentration: 100 nM; construct: GST-full length.
T1 sequence: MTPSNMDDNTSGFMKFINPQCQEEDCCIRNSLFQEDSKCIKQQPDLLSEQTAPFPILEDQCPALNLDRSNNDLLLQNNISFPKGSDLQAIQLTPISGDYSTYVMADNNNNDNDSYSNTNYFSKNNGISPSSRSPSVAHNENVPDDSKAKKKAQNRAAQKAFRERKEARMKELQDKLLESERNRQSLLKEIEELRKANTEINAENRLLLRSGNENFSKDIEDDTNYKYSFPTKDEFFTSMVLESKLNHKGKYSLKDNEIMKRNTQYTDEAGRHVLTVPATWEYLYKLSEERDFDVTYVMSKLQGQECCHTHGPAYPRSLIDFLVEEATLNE
Experimental: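 Universal 'all 10-mer' protein binding microarrays (Agilent AMADID 015681) probed with GST-tagged S. cerevisiae TFs (full-length or DBD) made by in vitro transcription/translation (PURExpress), about 100-200 nM. Bound TF was detected with fluorescent anti-GST. Each ungapped 8-mer (which stands for itself and its reverse complement) is scored by the PBM enrichment score (E-score), a modified Wilcoxon-Mann-Whitney statistic from -0.5 to +0.5, computed with the Universal PBM Analysis Suite. Scale: above 0.35 generally sequence-specific binding.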

Row | Sequence | PBM E-score
1 | CAATCGAA | 0.0747
2 | CAAGCCCA | -0.113
3 | CACCATCA | -0.0192
4 | AAGCTGGA | -0.124
5 | AACTGGTG | -0.157
6 | GTTTCTCA | 0.0141
7 | TAGAGGCA | -0.0959
8 | AAGTCCGA | -0.0818
9 | AGATACGG | 0.0567
10 | TAAAGGGA | 0.0664
11 | GATATAGC | 0.148
12 | AAGAGCCA | 0.101
13 | GACACATC | -0.0641
14 | CTGCGATA | -0.112
15 | CCTTTTAA | -0.0447
16 | ACGACCGA | -0.0361
17 | GTATTGAC | 0.0197
18 | GGGGAAAC | -0.0891
19 | GGGATGTA | 0.0252
20 | AAGAGACC | -0.0437
21 | ATCCAATG | -0.0901
22 | CTCATGGA | -0.135
23 | CCAGGAGC | -0.31
24 | GACACTCC | -0.0249
25 | CATGACGA | 0.107

Row | Sequence | PBM E-score
26 | CAAAGGAG | 0.0695
27 | TCATGAGA | 0.0159
28 | CACTGATG | -0.175
29 | GCGCCGTA | -0.00389
30 | GACGGCCA | -0.0623
31 | AAACGTGT | -0.0207
32 | ATAAAGAG | 0.0509
33 | AACGATCC | -0.191
34 | AGTAAATG | 0.0753
35 | ACTTTGAG | -0.0896
36 | GCTTTGTA | 0.259
37 | ATTGCATG | 0.122
38 | CCCTGCCC | -0.244
39 | CAAGCCGC | -0.248
40 | AATGGTCG | -0.143
41 | AAGGGGGT | -0.355
42 | CAGTCCTC | -0.2
43 | ATCCCGTC | -0.0813
44 | ACGGTACA | 0.136
45 | GGGAGCAC | -0.323
46 | CACCATAA | 0.152
47 | ATCATTCG | 0.206
48 | TACCAGCA | -0.0181
49 | AGATGGCG | 0.103
50 | GTCTAGGA | -0.161

Row | Sequence | PBM E-score
51 | AGGTGTGG | -0.121
52 | ACCTGTGA | 0.0275
53 | GTATTTTA | 0.0831
54 | CAAGCCCG | -0.296
55 | ACTTATAA | 0.148
56 | TCTGAGAA | 0.111
57 | ATAAGTCA | 0.262
58 | GATTGTAC | -0.0108
59 | CCAATACA | 0.162
60 | GAAGTTAC | 0.175
61 | AGTAGCAG | 0.0436
62 | ATCGCGAG | 0.167
63 | AAAATCAC | 0.158
64 | CCCGCGAG | -0.113
65 | GGACTTAA | -0.0964
66 | CGAACCAA | -0.00985
67 | AAAGTTCG | 0.181
68 | AACCGTAG | -0.193
69 | ATTTGCTA | 0.181
70 | AAAATTTT | 0.246
71 | GTAGAAAC | 0.0115
72 | AAGGTGAA | 0.0235
73 | AGTCAAGA | -0.0596
74 | CGAAGCAA | 0.0791
75 | ACCCAGTC | -0.0488

44 consecutive entries already listed, for reference:
Row | Sequence | PBM E-score
4 | AAGCTGGA | -0.124
5 | AACTGGTG | -0.157
6 | GTTTCTCA | 0.0141
7 | TAGAGGCA | -0.0959
8 | AAGTCCGA | -0.0818
9 | AGATACGG | 0.0567
10 | TAAAGGGA | 0.0664
11 | GATATAGC | 0.148
12 | AAGAGCCA | 0.101
13 | GACACATC | -0.0641
14 | CTGCGATA | -0.112
15 | CCTTTTAA | -0.0447
16 | ACGACCGA | -0.0361
17 | GTATTGAC | 0.0197
18 | GGGGAAAC | -0.0891
19 | GGGATGTA | 0.0252
20 | AAGAGACC | -0.0437
21 | ATCCAATG | -0.0901
22 | CTCATGGA | -0.135
23 | CCAGGAGC | -0.31
24 | GACACTCC | -0.0249
25 | CATGACGA | 0.107
26 | CAAAGGAG | 0.0695
27 | TCATGAGA | 0.0159
28 | CACTGATG | -0.175
29 | GCGCCGTA | -0.00389
30 | GACGGCCA | -0.0623
31 | AAACGTGT | -0.0207
32 | ATAAAGAG | 0.0509
33 | AACGATCC | -0.191
34 | AGTAAATG | 0.0753
35 | ACTTTGAG | -0.0896
36 | GCTTTGTA | 0.259
37 | ATTGCATG | 0.122
38 | CCCTGCCC | -0.244
39 | CAAGCCGC | -0.248
40 | AATGGTCG | -0.143
41 | AAGGGGGT | -0.355
42 | CAGTCCTC | -0.2
43 | ATCCCGTC | -0.0813
44 | ACGGTACA | 0.136
45 | GGGAGCAC | -0.323
46 | CACCATAA | 0.152
47 | ATCATTCG | 0.206

Following part:

Row | Sequence | PBM E-score
76 | CCTCAACA | 0.102
77 | TCCCAACA | -0.0353
78 | CGCTCAAG | -0.114
79 | AGTCCTAT | 0.0522
80 | CACACTGC | -0.0177
81 | CAGTTCCA | -0.0933
82 | AAGTGGCT | -0.0321
83 | CCGTTTCC | 0.0637
84 | CGTCCCTC | -0.209
85 | CATGTTCG | -0.0904
86 | TAACGTGA | 0.0273
87 | CCGAAAGC | -0.21
88 | GGGATGGA | -0.171
89 | GCAGACTA | -0.0847
90 | ATCCCAGC | -0.0719
91 | CTTACCTC | 0.0214
92 | ACGCTGCG | -0.0892
93 | CGAAAAAA | 0.229
94 | AGCCACTC | -0.154
95 | GGCATAGA | 0.0675
96 | GATGTTAC | 0.104
97 | CAAGGCCG | -0.0878
98 | AAGTAGTC | -0.0821
99 | TCAGAGGA | -0.122
100 | CGCTGCAG | -0.0323

Row | Sequence | PBM E-score
101 | CACAGTGC | -0.0614
102 | CTCCCGAA | -0.124
103 | ATCCACTA | 0.124
104 | CTTCACGC | 0.128
105 | CCTTTCCG | -0.215
106 | AAAATGCA | -0.0446
107 | AACTCAGA | -0.0359
108 | AAACCAAT | 0.136
109 | GCGTTAAA | -0.0726
110 | GGAAACCC | 0.0773
111 | GCCTTTCC | -0.15
112 | GCATATCA | 0.191
113 | AACGTATT | 0.0931
114 | GGGGAGAC | -0.304
115 | AGCAGTAT | 0.159
116 | CAACATGA | 0.108
117 | CAGCTAAA | -0.044
118 | CCTATCCC | 0.0708
119 | AATTACAG | 0.195
120 | ATGTGCCA | 0.0129
121 | CCACTGGA | -0.147
122 | ATCCTGAG | -0.0543
123 | CTTAAAGC | -0.0553
124 | CCGATTGA | 0.0881
125 | CCATGGCG | -0.0321

Row | Sequence | PBM E-score
126 | AACGTGAT | 0.113
127 | AGACGCCC | -0.165
128 | AAATTTTA | 0.118
129 | GCGCCACA | -0.00462
130 | CCAAAATC | 0.123
131 | AGAGCCCG | -0.237
132 | ATTAACAA | 0.282
133 | GAACACCA | -0.103
134 | CCTCCAAG | -0.0941
135 | AGGCACCA | -0.0616
136 | AATCGATA | 0.229
137 | ACCGTTAT | 0.141
138 | ACTCATCA | -0.0345
139 | CCTTCCGC | -0.175
140 | GAATGACC | 0.0254
141 | ACGCCTAC | -0.178
142 | AATAGTTA | 0.0935
143 | CATTAGTA | 0.289
144 | GAGCAATA | -0.0269
145 | AGCACTTC | -0.0014
146 | AAGTGGGG | -0.178
147 | ACCCATCC | -0.241
148 | TCGTTAAA | 0.108
149 | CACATCTC | 0.198
150 | TCATCAAA | -0.0185

Row | Sequence | PBM E-score
151 | TCGATAGA | -0.0154
152 | AAGTGGAG | 0.159
153 | CAAAACGA | 0.133
154 | CAAATTAA | 0.155
155 | ATGAGATC | 0.0571
156 | CACGACGA | -0.214
157 | ATCCGTTC | 0.057
158 | AATACAAT | 0.18
159 | AACGGTGA | -0.0384
160 | ACACATGC | 0.0454
161 | GAGGATCC | -0.0934
162 | GTCTCGTA | -0.0465
163 | CATTCTGC | 0.126
164 | ATCACCTA | 0.00994
165 | TAAACAGA | 0.0916
166 | CTCAAGCA | -0.191
167 | AATCATGC | -0.0909
168 | AAGAACGT | 0.125
169 | CCCCATGC | -0.303
170 | TTCGTCAA | 0.0747
171 | CAATTCAG | -0.0246
172 | GTCTAAAC | 0.174
173 | ACGGGCAA | -0.133
174 | CAGACCCG | -0.095
175 | ATCAGTAC | 0.0555

Row | Sequence | PBM E-score
176 | CTACTATC | 0.178
177 | AAGCCAAC | 0.0844
178 | AACCAATG | 0.131
179 | AATTATAG | 0.234
180 | GCGTATGA | -0.071
181 | CCAGTCCC | -0.172
182 | ATTTTCAC | 0.174
183 | TGCCTCCA | -0.172
184 | CAGCGTGC | -0.131
185 | CTAGCGAG | -0.183
186 | AGGTAAGA | 0.147
187 | ATCAACAT | 0.221
188 | CACCTGAG | -0.00852
189 | CGAATATC | 0.154
190 | AGGATAAG | -0.0931
191 | ACAGGAAT | -0.0331
192 | GCGGCTAA | -0.0345
193 | GACCAGGA | -0.0158
194 | TGGGTGAA | 0.251
195 | ATTCAATA | 0.225
196 | CGATCGAC | 0.14
197 | TTCATCAA | 0.0528
198 | TATTCTAA | 0.154
199 | TAGCATGA | 0.149
200 | GAGGTCTA | -0.165

Row | Sequence | PBM E-score
201 | ACCGTGTG | -0.088
202 | ACTGTCAG | 0.0443
203 | GTTAGGCA | -0.14
204 | AATTACTC | 0.241
205 | CGCAATCC | 0.161
206 | AGCTAGAG | 0.036
207 | CGGCTTTC | -0.0635
208 | ACCCCTCT | -0.251
209 | ACTCCTTC | -0.0777
210 | GGGGTTGA | -0.0643
211 | GATAAACC | 0.126
212 | AACTACCG | -0.0363
213 | GACCTCTC | -0.0778
214 | CTCGGAAG | 0.00874
215 | CTAGAGAC | -0.208
216 | GATGCTGC | -0.136
217 | ACGGATTG | 0.104
218 | AAAGGGTG | 0.028
219 | CCTACCGA | -0.0814
